Reference: PubChem BioAssay AID652243 (Drosophila RNAi Screening Center, 2013)

- Screen: 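Fly regulators of androgen-dependent reporter output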 (primary screen)
- Cell system: Drosophila S2R+ cells
- Knock-down reagent: long dsRNA against Drosophila genes
- Duration: 72 h (48 h, then 24 h hormone)
- Treatment: synthetic androgen R1881 at 10 nM for 24 h
- Detection: 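Per-well raw luminescence of the androgen-driven firefly reporter and of the Renilla control, two replicates each, without normalisation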
- Direction: firefly reporter light: higher = more light from androgen-responsive reporter; Renilla control light: higher = more constitutive control signal (cell number, transfection)
- Active means: 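Across duplicate plates, a knock-down whose log firefly/Renilla ratio shifted a set fold down or up from the GFP/LacZ control mean was a hit; the downward cut appears as both 1.5 and 3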
- Meaning of the calls: active = hit: reporter lowered or raised; inactive = no hit
In all, the deposit lists about 24,000 reagents; below is an unselected part of those with a known target gene and a result. In the full data, 246 (1%) were called active. 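Plates not normalised; calls are printed but the firefly/Renilla ratio behind them is not deposited; fold cut for lowering reported inconsistently.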 The raw values are shown without normalisation. A plus sign joins genes that one reagent is predicted to hit. Reagent sequences are not shown. The record does not give: the amount of reagent.

For Tim17a2 (GeneID 40632) [DRSC12252], what does the deposit list?
firefly reporter light, replicate 1: 61890; firefly reporter light, replicate 2: 99889; Renilla control light, replicate 1: 1.98e6; Renilla control light, replicate 2: 1.79e6; activity call: inactive

With Tim17a2 (GeneID 40632) [DRSC23837], what does the deposit list?
firefly reporter light, replicate 1: 2.86e5; firefly reporter light, replicate 2: 1.99e5; Renilla control light, replicate 1: 6.56e5; Renilla control light, replicate 2: 4.82e5; activity call: inactive

Which result is listed for CG30403 (GeneID 246595) [DRSC03889]?
firefly reporter light, replicate 1: 5.24e5; firefly reporter light, replicate 2: 5.47e5; Renilla control light, replicate 1: 2.72e6; Renilla control light, replicate 2: 4.11e6; activity call: inactive

Which result is listed for CG10969 (GeneID 39451) [DRSC09811]?
firefly reporter light, replicate 1: 1.67e5; firefly reporter light, replicate 2: 1.43e5; Renilla control light, replicate 1: 1.47e6; Renilla control light, replicate 2: 1.29e6; activity call: inactive

With CG10969 (GeneID 39451) [DRSC29502], what does the deposit list?
firefly reporter light, replicate 1: 4.63e5; firefly reporter light, replicate 2: 4.27e5; Renilla control light, replicate 1: 7.51e5; Renilla control light, replicate 2: 7.51e5; activity call: inactive

Which result is listed for CG31418 (GeneID 42084) [DRSC21780]?
firefly reporter light, replicate 1: 5.34e5; firefly reporter light, replicate 2: 4.34e5; Renilla control light, replicate 1: 1.95e6; Renilla control light, replicate 2: 1.90e6; activity call: inactive

For CG31418 (GeneID 42084) [DRSC26160], what does the deposit list?
firefly reporter light, replicate 1: 2.86e5; firefly reporter light, replicate 2: 2.62e5; Renilla control light, replicate 1: 6.61e5; Renilla control light, replicate 2: 6.41e5; activity call: inactive

With CG33640 (GeneID 3772680) [DRSC38916], what was measured?
firefly reporter light, replicate 1: 7.93e5; firefly reporter light, replicate 2: 7.21e5; Renilla control light, replicate 1: 1.85e6; Renilla control light, replicate 2: 2.01e6; activity call: inactive

With CG14839 (GeneID 41736) [DRSC14963], what was measured?
firefly reporter light, replicate 1: 7.55e5; firefly reporter light, replicate 2: 5.98e5; Renilla control light, replicate 1: 2.39e6; Renilla control light, replicate 2: 1.37e6; activity call: inactive

What did the screen give for CG14839 (GeneID 41736) [DRSC27307]?
firefly reporter light, replicate 1: 2.62e5; firefly reporter light, replicate 2: 2.92e5; Renilla control light, replicate 1: 3.58e5; Renilla control light, replicate 2: 5.69e5; activity call: inactive

For Nepl20 (GeneID 43412) [DRSC14878], what does the deposit list?
firefly reporter light, replicate 1: 2.21e5; firefly reporter light, replicate 2: 1.79e5; Renilla control light, replicate 1: 2.91e6; Renilla control light, replicate 2: 2.72e6; activity call: inactive

How did the screen score Or67c (GeneID 39189) [DRSC11242]?
firefly reporter light, replicate 1: 2.10e5; firefly reporter light, replicate 2: 1.56e5; Renilla control light, replicate 1: 2.43e6; Renilla control light, replicate 2: 1.68e6; activity call: inactive

For betaNACtes6 + betaNACtes3 [DRSC27147], what does the deposit list?
firefly reporter light, replicate 1: 5.38e5; firefly reporter light, replicate 2: 5.44e5; Renilla control light, replicate 1: 7.04e5; Renilla control light, replicate 2: 6.06e5; activity call: inactive

How did the screen score CG14174 (GeneID 39139) [DRSC10175]?
firefly reporter light, replicate 1: 1.32e5; firefly reporter light, replicate 2: 1.52e5; Renilla control light, replicate 1: 1.95e6; Renilla control light, replicate 2: 1.43e6; activity call: inactive

Limited to “firefly reporter light, replicate 1”, for 2 of the entries above:
CG14839 (GeneID 41736) [DRSC27307]	2.62e5
Nepl20 (GeneID 43412) [DRSC14878]	2.21e5
